Source: PubChem BioAssay AID1259297 (Sanger Institute, 2017)

Aim: 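Kinases whose loss kills cells on their own or with targeted drugs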 (primary screen)
Cell system: human RCM1 colorectal cancer cell line
Knock-down reagent: siRNA pool against human genes
Challenge: separate arms: DMSO vehicle, or one anchor drug at a mild dose: BYL719 1 µM, cetuximab 5 µg/ml, trametinib 10 nM
Read-out: 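Viability per well relative to a non-targeting pool, mean of replicates; robust z-score for knock-down alone; synergy score with BYL719, cetuximab or trametinib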
Reading the numbers: viability z-score, knock-down alone: higher = more viable cells than non-targeting controls; viability, knock-down alone (DMSO): higher = more viable cells; synergy score with trametinib: higher = stronger combined killing with trametinib; synergy score with BYL719: higher = stronger combined killing with BYL719
Rule for the call: 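Called essential if knock-down without drug gives a viability robust z-score under -3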
Meaning of the calls: active = essential when knocked down alone; inactive = no clear loss of viability alone
Here is an unselected part of 794 reagents tested. 13 of them (1.6%) count as active. 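Calls reflect knock-down without drug only; drug synergy is judged separately, with scores above 0.15 counted as synergy.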 Viability is capped at 1. Further read-outs or replicates are left out here. No sequences are given here. Not given: the amount of reagent, the time to read-out.

no.	Gene	viability z-score, knock-down alone	viability, knock-down alone (DMSO) (fraction of control)	synergy score with trametinib	synergy score with BYL719	Call
1	GAK (GeneID 2580)	0.9	1	0.0405	0.0173	inactive
2	GRK1 (GeneID 6011)	0.9	1	-0.113	-0.0261	inactive
3	PRPS2 (GeneID 5634)	0.488	0.962	-0.0166	0.035	inactive
4	MLKL (GeneID 197259)	-0.291	0.889	0.0864	-0.00588	inactive
5	HASPIN (GeneID 83903)	-0.196	0.898	0.0525	-0.106	inactive
6	IPPK (GeneID 64768)	0.9	1	0.0676	0.0956	inactive
7	BRAF (GeneID 673)	-0.103	0.907	0.0827	0.0593	inactive
8	DGKG (GeneID 1608)	0.861	0.996	0.00473	0.065	inactive
9	PKN3 (GeneID 29941)	0.9	1	0.0656	-0.00122	inactive
10	IRAK2 (GeneID 3656)	0.9	1	0.018	-0.0484	inactive

Continued; the last 2 above are carried over.
no.	Gene	viability z-score, knock-down alone	viability, knock-down alone (DMSO) (fraction of control)	synergy score with trametinib	synergy score with BYL719	Call
9	PKN3 (GeneID 29941)	0.9	1	0.0656	-0.00122	inactive
10	IRAK2 (GeneID 3656)	0.9	1	0.018	-0.0484	inactive
11	EIF2AK2 (GeneID 5610)	-0.63	0.858	0.0218	-0.155	inactive
12	ROR2 (GeneID 4920)	0.9	1	0.0265	0.0179	inactive
13	UHMK1 (GeneID 127933)	0.163	0.932	-0.0432	-0.0444	inactive
14	FGFRL1 (GeneID 53834)	0.119	0.927	0.117	0.00973	inactive
15	PIK3R4 (GeneID 30849)	0.634	0.975	0.104	0.0313	inactive
16	EPHA2 (GeneID 1969)	0.9	1	-0.0986	-0.0688	inactive
17	KRAS (GeneID 3845)	-3.64	0.579	0.0311	0.103	active
18	MAP3K6 (GeneID 9064)	0.9	1	0.0374	-0.0374	inactive
19	STK32A (GeneID 202374)	0.754	0.986	0.0558	-0.0542	inactive
20	MYLK (GeneID 4638)	-1.42	0.785	0.0337	-0.0383	inactive
